Experimental data: PubChem BioAssay AID686938 (Drosophila RNAi Screening Center, 2013)
Purpose: 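Knock-downs reducing store-operated calcium influx in Drosophila cells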 (primary screen). System: Drosophila S2R+ cells. Knock-down reagent: long dsRNA against Drosophila genes, about 0.25 µg dsRNA per well, roughly 10,000 cells. Time to read-out: 5 days of knock-down before the calcium assay. Conditions: thapsigargin (SERCA pump blocker) to empty calcium stores; entry signal taken 4 min after adding it. Read-out: 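Per-well fluo-4 fluorescence in two replicates, unnormalised, measured in resting cells and 4 min after store depletion by the SERCA blocker thapsigargin; ratio of the two present in few wells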. Direction: calcium entry signal: higher = stronger calcium signal after store depletion; resting calcium signal: higher = higher resting calcium signal. Rule for the call: 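Hit if the duplicate-averaged plate z-score for entry over resting signal is under −3; wells with weak total dye signal (Fmax z < −2) or more than 5 off-targets removed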. Calls: active = strongly reduced calcium entry; inactive = no strong reduction.
In all, the deposit lists about 23,000 reagents; below is an unselected part of those that have a named target and a result. Of all reagents, 75 (0.33%) are marked active. 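Raw plate signals without normalisation; calls rest on plate z-scores that were not deposited; ratio present for only 364 wells.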 The numbers tell different reagents against one gene apart. Reagent sequences are not shown. Not given: the dose of the treatment.

CG4666: calcium entry signal, replicate 1 (fluorescence units) = 3.68e7; calcium entry signal, replicate 2 (fluorescence units) = 4.56e7; resting calcium signal, replicate 1 (fluorescence units) = 1.78e7; resting calcium signal, replicate 2 (fluorescence units) = 2.09e7; activity call = inactive
fd3F (forkhead domain 3F) #1: calcium entry signal, replicate 1 (fluorescence units) = 1.44e7; calcium entry signal, replicate 2 (fluorescence units) = 2.50e7; resting calcium signal, replicate 1 (fluorescence units) = 8.44e6; resting calcium signal, replicate 2 (fluorescence units) = 1.37e7; activity call = inactive
fd3F (forkhead domain 3F) #2: calcium entry signal, replicate 1 (fluorescence units) = 4.11e7; calcium entry signal, replicate 2 (fluorescence units) = 3.59e7; resting calcium signal, replicate 1 (fluorescence units) = 2.06e7; resting calcium signal, replicate 2 (fluorescence units) = 1.68e7; activity call = inactive
mys (myospheroid): calcium entry signal, replicate 1 (fluorescence units) = 2.70e7; calcium entry signal, replicate 2 (fluorescence units) = 4.05e7; resting calcium signal, replicate 1 (fluorescence units) = 1.22e7; resting calcium signal, replicate 2 (fluorescence units) = 1.82e7; activity call = inactive
CG18418: calcium entry signal, replicate 1 (fluorescence units) = 5.47e7; calcium entry signal, replicate 2 (fluorescence units) = 4.29e7; resting calcium signal, replicate 1 (fluorescence units) = 3.60e7; resting calcium signal, replicate 2 (fluorescence units) = 1.83e7; activity call = inactive
Alp11 (Alkaline phosphatase 11): calcium entry signal, replicate 1 (fluorescence units) = 2.84e7; calcium entry signal, replicate 2 (fluorescence units) = 3.40e7; resting calcium signal, replicate 1 (fluorescence units) = 1.55e7; resting calcium signal, replicate 2 (fluorescence units) = 1.46e7; activity call = inactive
Phk-3 (Pherokine 3): calcium entry signal, replicate 1 (fluorescence units) = 2.74e7; calcium entry signal, replicate 2 (fluorescence units) = 3.22e7; resting calcium signal, replicate 1 (fluorescence units) = 1.51e7; resting calcium signal, replicate 2 (fluorescence units) = 1.52e7; activity call = inactive
Aldh-III (Aldehyde dehydrogenase type III): calcium entry signal, replicate 1 (fluorescence units) = 4.11e7; resting calcium signal, replicate 1 (fluorescence units) = 2.23e7; activity call = inactive
Iswi (Imitation SWI): calcium entry signal, replicate 1 (fluorescence units) = 2.93e7; calcium entry signal, replicate 2 (fluorescence units) = 3.11e7; resting calcium signal, replicate 1 (fluorescence units) = 1.70e7; resting calcium signal, replicate 2 (fluorescence units) = 1.66e7; activity call = inactive
Inx3 (Innexin 3): calcium entry signal, replicate 1 (fluorescence units) = 4.21e7; calcium entry signal, replicate 2 (fluorescence units) = 4.87e7; resting calcium signal, replicate 1 (fluorescence units) = 1.78e7; resting calcium signal, replicate 2 (fluorescence units) = 2.09e7; activity call = inactive
CG8172 #1: calcium entry signal, replicate 1 (fluorescence units) = 5.97e7; calcium entry signal, replicate 2 (fluorescence units) = 3.74e7; resting calcium signal, replicate 1 (fluorescence units) = 2.39e7; resting calcium signal, replicate 2 (fluorescence units) = 1.59e7; activity call = inactive
CG8172 #2: calcium entry signal, replicate 1 (fluorescence units) = 3.54e7; calcium entry signal, replicate 2 (fluorescence units) = 3.61e7; resting calcium signal, replicate 1 (fluorescence units) = 1.56e7; resting calcium signal, replicate 2 (fluorescence units) = 1.91e7; activity call = inactive
CG34230: calcium entry signal, replicate 1 (fluorescence units) = 5.07e7; calcium entry signal, replicate 2 (fluorescence units) = 2.59e7; resting calcium signal, replicate 1 (fluorescence units) = 2.60e7; resting calcium signal, replicate 2 (fluorescence units) = 1.20e7; activity call = inactive
CG13716 #1: calcium entry signal, replicate 1 (fluorescence units) = 2.90e7; calcium entry signal, replicate 2 (fluorescence units) = 2.61e7; resting calcium signal, replicate 1 (fluorescence units) = 1.75e7; resting calcium signal, replicate 2 (fluorescence units) = 1.25e7; activity call = inactive
CG13716 #2: calcium entry signal, replicate 1 (fluorescence units) = 3.50e7; calcium entry signal, replicate 2 (fluorescence units) = 3.49e7; resting calcium signal, replicate 1 (fluorescence units) = 1.67e7; resting calcium signal, replicate 2 (fluorescence units) = 1.85e7; activity call = inactive
CG7924: calcium entry signal, replicate 1 (fluorescence units) = 2.18e7; calcium entry signal, replicate 2 (fluorescence units) = 3.20e7; resting calcium signal, replicate 1 (fluorescence units) = 1.08e7; resting calcium signal, replicate 2 (fluorescence units) = 2.30e7; activity call = inactive
Pur-alpha (Purine-rich binding protein-alpha): calcium entry signal, replicate 1 (fluorescence units) = 2.75e7; calcium entry signal, replicate 2 (fluorescence units) = 4.52e7; resting calcium signal, replicate 1 (fluorescence units) = 1.38e7; resting calcium signal, replicate 2 (fluorescence units) = 1.86e7; activity call = inactive
Spn55B (Serpin 55B) #1: calcium entry signal, replicate 1 (fluorescence units) = 3.54e7; calcium entry signal, replicate 2 (fluorescence units) = 4.46e7; resting calcium signal, replicate 1 (fluorescence units) = 1.62e7; resting calcium signal, replicate 2 (fluorescence units) = 2.43e7; activity call = inactive
Spn55B (Serpin 55B) #2: calcium entry signal, replicate 1 (fluorescence units) = 2.09e7; calcium entry signal, replicate 2 (fluorescence units) = 3.75e7; resting calcium signal, replicate 1 (fluorescence units) = 1.07e7; resting calcium signal, replicate 2 (fluorescence units) = 1.90e7; activity call = inactive
CG5611: calcium entry signal, replicate 1 (fluorescence units) = 2.06e7; calcium entry signal, replicate 2 (fluorescence units) = 3.57e7; resting calcium signal, replicate 1 (fluorescence units) = 1.06e7; resting calcium signal, replicate 2 (fluorescence units) = 1.54e7; activity call = inactive
CR6900 (pseudo): calcium entry signal, replicate 1 (fluorescence units) = 5.08e7; calcium entry signal, replicate 2 (fluorescence units) = 3.47e7; resting calcium signal, replicate 1 (fluorescence units) = 2.29e7; resting calcium signal, replicate 2 (fluorescence units) = 1.54e7; activity call = inactive
cos (costa): calcium entry signal, replicate 1 (fluorescence units) = 3.99e7; resting calcium signal, replicate 1 (fluorescence units) = 2.07e7; activity call = inactive
Kdm2 (Lysine demethylase 2): calcium entry signal, replicate 1 (fluorescence units) = 3.32e7; calcium entry signal, replicate 2 (fluorescence units) = 4.21e7; resting calcium signal, replicate 1 (fluorescence units) = 1.25e7; resting calcium signal, replicate 2 (fluorescence units) = 1.65e7; activity call = inactive
Nup107 (Nucleoporin 107kD): calcium entry signal, replicate 1 (fluorescence units) = 1.44e7; calcium entry signal, replicate 2 (fluorescence units) = 2.29e7; resting calcium signal, replicate 1 (fluorescence units) = 8.33e6; resting calcium signal, replicate 2 (fluorescence units) = 1.17e7; activity call = inactive
CG14568: calcium entry signal, replicate 1 (fluorescence units) = 3.47e7; calcium entry signal, replicate 2 (fluorescence units) = 5.57e7; resting calcium signal, replicate 1 (fluorescence units) = 1.58e7; resting calcium signal, replicate 2 (fluorescence units) = 2.13e7; activity call = inactive
CG33627: calcium entry signal, replicate 1 (fluorescence units) = 4.12e7; calcium entry signal, replicate 2 (fluorescence units) = 3.53e7; resting calcium signal, replicate 1 (fluorescence units) = 1.78e7; resting calcium signal, replicate 2 (fluorescence units) = 1.40e7; activity call = inactive
CG6418: calcium entry signal, replicate 1 (fluorescence units) = 2.94e7; calcium entry signal, replicate 2 (fluorescence units) = 2.44e7; resting calcium signal, replicate 1 (fluorescence units) = 2.14e7; resting calcium signal, replicate 2 (fluorescence units) = 9.46e6; activity call = inactive

2 neighbouring reagents already listed:
CG13716 #2: calcium entry signal, replicate 1 (fluorescence units) = 3.50e7; calcium entry signal, replicate 2 (fluorescence units) = 3.49e7; resting calcium signal, replicate 1 (fluorescence units) = 1.67e7; resting calcium signal, replicate 2 (fluorescence units) = 1.85e7; activity call = inactive
CG7924: calcium entry signal, replicate 1 (fluorescence units) = 2.18e7; calcium entry signal, replicate 2 (fluorescence units) = 3.20e7; resting calcium signal, replicate 1 (fluorescence units) = 1.08e7; resting calcium signal, replicate 2 (fluorescence units) = 2.30e7; activity call = inactive
